Here are results for 55 molecules from PubChem BioAssay AID588519 (ICCB-Longwood Screening Facility, Harvard Medical School, 2011).

“And” between values parts separate entries of the source, which are not always exact repeats. Identical values can stand only once. The list shows a part of the results.

In the test the target is Genome polyprotein (Poliovirus type 1 (strain Mahoney)) (UniProt P03300). The test is described as follows: inhibitors of poliovirus polymerase RNA elongation – biochemical, fluorescence polarization, total intensity, primary screen (AID 588519). The note with it: stronger effect = lower value; % elongation: measured here: total intensity read-out, compound at 16.7 µg/mL; z-score: measured here: FP z-score. A general note: Fluorescence polarisation rises when a labelled molecule tumbles more slowly, as on binding a larger partner.
As to `Cc1cc(NC2=NC3C(C(=O)N(C)C(=O)N3C)N2C)n(-c2ccccc2)n1` (stereo not given), the % elongation came out at 105% and the z-score amounted to 0.1.

Take `O=P1(Nc2nncs2)C=C(c2ccccc2)SC(c2ccccc2)=C1`: the % elongation was found to be 92% and the z-score was -0.7.

Regarding `O=P1(Nc2nc3ccc(Cl)cc3s2)COc2ccccc2O1` (stereo not given), the % elongation worked out at 103% and the z-score was -0.5.

Consider `O=C(OCCN1CCN(CCOCc2ccccc2)CC1)C(O)(c1ccccc1)c1ccccc1`, for which the % elongation was 99% and the z-score is -0.7.

Regarding `O=C(OCC1CN(Cc2ccccc2)CCO1)C(O)(c1ccccc1)c1ccccc1` (stereo not given), the % elongation was 103% and the z-score amounted to 0.5.

On to `CC1CCC(C(C)C)C(OP(=O)(Nc2nccs2)c2ccccc2)C1` (stereo not given), for which the % elongation is 118% and the z-score was 0.3.

In the case of `COc1cc2c(cc1NP(C)(=O)Oc1ccccc1)oc1ccccc12` (stereo not given), the % elongation came out at 109% and the z-score was 0.5.

`COC(=O)c1cc2c(s1)N=C(c1ccccc1)N(C)P2(=O)N1CCOCC1` (stereo not given): the % elongation amounted to 95% and the z-score is -0.1.

As to `Nc1nonc1OCc1nonc1COc1nonc1N`, the % elongation was 103% and the z-score turned out to be 0.3.

Take `CC(=O)OC1(C#N)CN2CCC1CC2` (stereo not given): the % elongation worked out at 103% and the z-score is -0.7.

For the molecule `CC(=O)OC1CN2CCC1C(c1ccccc1)C2` (stereo not given), the % elongation was 104% and the z-score was 1.1.

On to `O=P(Nc1nccs1)(c1ccccc1)c1ccccc1`, for which the % elongation is 104% and the z-score was determined as 0.2.

As to `C/C1=C2N=C(/C=C3N=C(/C(C)=C4\[N-][C@@](C)([C@@H]5N=C1[C@](C)(CCC(=O)NC[C@@H](C)OP(=O)([O-])O[C@H]1[C@@H](O)[C@@H](n6cnc7cc(C)c(C)cc76)O[C@@H]1CO)[C@H]5CC(N)=O)[C@@](C)(CC(N)=O)[C@@H]4CCC(N)=O)[C@@](C)(CC(N)=O)[C@@H]\3CCC(N)=O)C(C)(C)[C@@H]/2CCC(N)=O.[C-]#N.[Co+3]`, the % elongation came to 55% and the z-score is -4.5.

On to `Cc1ccccc1NP(C)(=O)Nc1ccccc1C`, for which the % elongation was found to be 104% and the z-score is 0.3.

In the case of `CCc1ccc(OP(C)(=O)Nc2cccnc2)cc1` (stereo not given), the % elongation is 106% and the z-score worked out at 0.8.

In the case of `CCc1nc2c(n1)c1c(non1O)c1c2no[n+]1[O-]`, the % elongation turned out to be 82% and the z-score is -4.1.

As for `OCCSCCO`, the % elongation was 102% and the z-score is -0.1.

Take `CP(=O)(Nc1ccc(Cl)cc1)Oc1ccc(F)cc1` (stereo not given): the % elongation came to 107% and the z-score was determined as 0.2.

Regarding `O=C(COC(=O)C(O)(c1ccccc1)c1ccccc1)N1CCCCC1`, the % elongation was 103% and the z-score is -0.3.

For the molecule `CCOP(=Nc1nc2ccccc2n2nnnc12)(OCC)OCC`, the % elongation was found to be 103% and the z-score was -0.2.

In the case of `CN(C(=O)Cc1ccc(Cl)c(Cl)c1)[C@H]1CCCC[C@@H]1N1CCCC1`, the % elongation was 102% and 104%; the z-score is 0.6 and 1.3.

Turning to `CCOP(OCC)N1CCOCC1`, the % elongation amounted to 101% and the z-score came to 0.

`CP(=O)(Nc1ccccn1)Oc1ccccc1` (stereo not given): the % elongation came out at 105% and the z-score was 0.2.

In the case of `O=P1(Nc2nccs2)CC=CC1`, the % elongation was 101% and the z-score worked out at 0.

As for `CN(C)P1(=O)Nc2ccccc2S1` (stereo not given), the % elongation was found to be 115% and the z-score came to 0.6.

Turning to `O=C(OC1CN2CCC1CC2)C12CC3CC(CC(C3)C1)C2` (stereo not given), the % elongation worked out at 104% and the z-score came out at 0.2.

For `CC1=Nc2ccc(C(F)(F)F)cc2C1(C)C`, the % elongation turned out to be 97% and the z-score is -0.2.

In the case of `COP1(=S)N=C2c3ccccc3CN2c2cc(N(C)C)ccc21` (stereo not given), the % elongation came out at 95% and the z-score was -0.1.

As for `Cc1cc(C)cc(OP(C)(=O)NCc2ccccc2)c1` (stereo not given), the % elongation was determined as 99% and the z-score turned out to be 0.5.

As for `Nc1nonc1OCCOc1nonc1N`, the % elongation stood at 103% and the z-score was found to be 0.3.

Consider `O=C(O)CCC(=O)N=S(c1ccccc1)c1ccccc1.O=[N+]([O-])c1cc([N+](=O)[O-])c(O)c([N+](=O)[O-])c1`, for which the % elongation turned out to be 92% and the z-score was -0.6.

`COc1ccccc1OP(C)(=O)Nc1ccccc1` (stereo not given): the % elongation was determined as 99% and the z-score was -0.5.

On to `CCN1C(=O)N(c2ccccc2)P(=S)(OC)c2cc3c(cc21)OCCO3` (stereo not given), for which the % elongation worked out at 100% and the z-score was -0.6.

Consider `CP(=O)(Nc1ccc(Cl)cc1)Oc1ccccc1` (stereo not given), for which the % elongation amounted to 102% and the z-score turned out to be 0.

In the case of `CP(=O)(NC(=O)Nc1ccccc1)Oc1ccccc1` (stereo not given), the % elongation came to 93% and the z-score was determined as 0.

Turning to `COP1(=S)c2c(C)nn(-c3ccccc3)c2N=C(c2ccccc2)N1C1CC1` (stereo not given), the % elongation came out at 98% and the z-score was -0.1.

Turning to `CCn1cccc/c1=N\P1(=S)OCCO1`, the % elongation was determined as 100% and the z-score was 0.1.

Regarding `Cc1cccc(NP(C)(=O)Oc2ccccc2)c1` (stereo not given), the % elongation was 100% and the z-score was -0.4.

`CCOC(=O)c1ccc(NP(C)(=O)Oc2ccc(OC)cc2)cc1` (stereo not given): the % elongation came to 98% and the z-score was 0.1.

Turning to `Nc1nonc1-c1no[n+]([O-])c1-c1nonc1N`, the % elongation is 88% and the z-score is -1.4.

In the case of `O=P1(Nc2ccccn2)COc2ccccc2OC1`, the % elongation was found to be 107% and the z-score amounted to 0.3.

Take `Cc1nn(CCC#N)c2c1P(=O)(Nc1ccccc1Cl)N(C)C(c1ccc(F)cc1)=N2` (stereo not given): the % elongation is 108% and the z-score came out at 0.1.

Take `CP(=O)(N1CCOCC1)N1CCOCC1`: the % elongation was found to be 103% and the z-score turned out to be 0.6.

As for `Cc1nn(-c2ccccc2)c2c1P(=O)(N1CCOCC1)N(C)C(c1ccccc1)=N2` (stereo not given), the % elongation stood at 105% and the z-score was 0.2.

With `Cc1ccc(C(=O)OC2CN3CCC2CC3)cc1` (stereo not given), the % elongation is 115% and the z-score came to 0.9.

Regarding `CC1(C)COP(=S)(N(C2=NCCC2)c2ccccc2)OC1`, the % elongation came to 90% and the z-score was -0.4.

Consider `Cc1cc(C)cc(OP(C)(=O)Nc2ccc(OC(C)C)cc2)c1` (stereo not given), for which the % elongation worked out at 107% and the z-score is -0.3.

For `CCSP(=O)(c1ccccc1)c1ccccc1`, the % elongation was found to be 89% and the z-score is -0.5.

For `NC(=O)COC(=O)C1(O)c2ccccc2-c2ccccc21`, the % elongation amounted to 109% and the z-score amounted to 0.1.

On to `CCOP1(=S)c2c(C)nn(CCC#N)c2N=C(c2ccc(F)cc2)N1C` (stereo not given), for which the % elongation was determined as 101% and the z-score is -0.3.

On to `NC(=O)Nc1ccc([As](=O)(O)O)cc1`, for which the % elongation is 102% and the z-score amounted to 0.1.

In the case of `O=P1(Nc2nc3ccc(Cl)cc3s2)COc2ccccc2OC1`, the % elongation came out at 103% and the z-score was 0.3.

Turning to `Cc1cccc(OCC(=O)OC2CN3CCC2CC3)c1` (stereo not given), the % elongation amounted to 102% and the z-score is -0.2.

Turning to `COc1cc(-n2cnnn2)ccc1-n1cnnn1`, the % elongation worked out at 96% and the z-score was found to be 0.2.

For `O=C(OC1CN2CCC1CC2)c1ccc(Cl)cc1` (stereo not given), the % elongation amounted to 104% and the z-score was determined as 0.1.
